Here are results for two molecules from article PMC6398978.

Amino acid sequences for entries named in this document (tags omitted).
UniProt P10085: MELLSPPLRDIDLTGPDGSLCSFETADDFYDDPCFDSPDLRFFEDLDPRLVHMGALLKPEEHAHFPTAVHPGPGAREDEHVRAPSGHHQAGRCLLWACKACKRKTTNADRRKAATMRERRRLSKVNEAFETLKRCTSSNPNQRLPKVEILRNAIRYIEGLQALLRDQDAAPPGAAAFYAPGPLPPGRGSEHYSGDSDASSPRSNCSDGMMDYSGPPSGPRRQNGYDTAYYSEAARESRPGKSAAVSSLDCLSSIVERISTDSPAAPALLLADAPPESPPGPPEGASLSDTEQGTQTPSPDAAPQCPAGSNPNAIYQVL
UniProt Q9WTL8: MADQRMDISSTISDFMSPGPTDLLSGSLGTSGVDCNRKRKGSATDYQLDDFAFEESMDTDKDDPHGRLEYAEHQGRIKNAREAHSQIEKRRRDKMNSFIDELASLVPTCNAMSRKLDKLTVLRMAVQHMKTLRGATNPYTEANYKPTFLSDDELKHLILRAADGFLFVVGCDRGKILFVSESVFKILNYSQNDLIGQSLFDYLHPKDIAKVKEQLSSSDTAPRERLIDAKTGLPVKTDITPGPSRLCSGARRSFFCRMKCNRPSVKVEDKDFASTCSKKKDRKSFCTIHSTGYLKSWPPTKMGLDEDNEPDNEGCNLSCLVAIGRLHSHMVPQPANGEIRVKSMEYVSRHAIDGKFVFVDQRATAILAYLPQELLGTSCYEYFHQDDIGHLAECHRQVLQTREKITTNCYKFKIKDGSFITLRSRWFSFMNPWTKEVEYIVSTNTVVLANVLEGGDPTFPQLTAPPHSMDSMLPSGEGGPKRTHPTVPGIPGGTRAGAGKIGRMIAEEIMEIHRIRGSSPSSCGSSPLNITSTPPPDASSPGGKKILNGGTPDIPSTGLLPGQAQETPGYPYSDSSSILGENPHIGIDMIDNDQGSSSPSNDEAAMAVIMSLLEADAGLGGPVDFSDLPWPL

Results are given in words; binding and its absence hold for the method and conditions named. Binding seen in cells or lysates may run through a third protein. Some binding calls cover weakened binding; strength is not graded here.

One assay concerns the target VN-MYOD1 (UniProt P10085). Nature of the assay: split reporter; Venus BiFC with the fragments swapped (VN-MYOD1 with VC-CLOCK or VC-BMAL1); data not shown.
A further assay concerns the target VN-BMAL1 (UniProt Q9WTL8). Nature of the assay: split reporter; Venus BiFC in C2C12 myoblasts; 250 ng of each VN and VC plasmid co-transfected with 100 ng mCherry; Leica SP8 confocal microscope 24 hr post transfection.

B1: VC-CLOCK (protein, UniProt O08785 1-855)
chain: MVFTVSCSKMSSIVDRDDSSIFDGLVEEDDKDKAKRVSRNKSEKKRRDQFNVLIKELGSMLPGNARKMDKSTVLQKSIDFLRKHKETTAQSDASEIRQDWKPTFLSNEEFTQLMLEALDGFFLAIMTDGSIIYVSESVTSLLEHLPSDLVDQSIFNFIPEGEHSEVYKILSTHLLESDSLTPEYLKSKNQLEFCCHMLRGTIDPKEPSTYEYVRFIGNFKSLTSVSTSTHNGFEGTIQRTHRPSYEDRVCFVATVRLATPQFIKEMCTVEEPNEEFTSRHSLEWKFLFLDHRAPPIIGYLPFEVLGTSGYDYYHVDDLENLAKCHEHLMQYGKGKSCYYRFLTKGQQWIWLQTHYYITYHQWNSRPEFIVCTHTVVSYAEVRAERRRELGIEESLPETAADKSQDSGSDNRINTVSLKEALERFDHSPTPSASSRSSRKSSHTAVSDPSSTPTKIPTDTSTPPRQHLPAHEKMTQRRSSFSSQSINSQSVGPSLTQPAMSQAANLPIPQGMSQFQFSAQLGAMQHLKDQLEQRTRMIEANIHRQQEELRKIQEQLQMVHGQGLQMFLQQSNPGLNFGSVQLSSGNSNIQQLTPVNMQGQVVPANQVQSGHISTGQHMIQQQTLQSTSTQQSQQSVMSGHSQQTSLPSQTPSTLTAPLYNTMVISQPAAGSMVQIPSSMPQNSTQSATVTTFTQDRQIRFSQGQQLVTKLVTAPVACGAVMVPSTMLMGQVVTAYPTFATQQQQAQTLSVTQQQQQQQQQPPQQQQQQQQSSQEQQLPSVQQPAQAQLGQPPQQFLQTSRLLHGNPSTQLILSAAFPLQQSTFPPSHHQQHQPQQQQQLPRHRTDSLTDPSKVQPQ
Turning to B1, in the assay with VN-MYOD1, the binding result was “binds”.

B2: VC-BMAL2 (protein, UniProt Q2VPD4 1-579)
chain: MEFPRKRRGRDSQPLQSEFMTDTTVESLPQNPFASLLSTRTGVSAPSGIREAHSQMEKRRRDKMNHLIQKLSSMIPPHIPTAHKLDKLSVLRRAVQYLRSLRGMTELYLGENSKPSFIQDKELSHLILKAAEGFLFVVGCERGRIFYVSKSVSKTLRYDQASLIGQNLFDFLHPKDVAKVKEQLSCDGSPREKPIDTKTSQVYSHPYTGRPRMHSGSRRSFFFRMKSCTVPVKEEQPCSSCSKKKDHRKFHTVHCTGYLRSWPLNVVGMEKESGGGKDSGPLTCLVAMGRLHPYIVPQKSGKINVRPAEFITRFAMNGKFVYVDQRATAILGYLPQELLGTSCYEYFHQDDHSSLTDKHKAVLQSKEKILTDSYKFRVKDGAFVTLKSEWFSFTNPWTKELEYIVSVNTLVLGRSETRLSLLHCGGSSQSSEDSFRQSCINVPGVSTGTVLGAGSIGTDIANEVLSLQRLHSSSPEDASPSEEVRDDCSVNGGNAYGPASTREPFAVSPSETEVLEAARQHQSTEPAHPHGPLPGDSAQLGFDVLCDSDSIDMAAFMNYLEAEGGLGDPGDFSDIQWAL
With B2, in the assay with VN-BMAL1, the binding result was “no binding”.
